Some of the results follow.
Legend:
Assay in all cases: log2 fold change, soluble protein after heating vs DMSO (PISA); higher = thermal stabilisation; K562 lysate, 10 uM; active = over 0.2 and 3.5 SD of the protein, either way, in both replicates (recomputed)
lapatinib = compound: CS(=O)(=O)CCNCc1ccc(-c2ccc3ncnc(Nc4ccc(OCc5cccc(F)c5)c(Cl)c4)c3c2)o1 [lapatinib]
Summary of the method: (§1)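 Values give the log-two fold change in thermal stability against solvent controls, from duplicates. Crude K562 extract at 1 mg/mL protein, made by dounce homogenisation in PBS pH 7.4 with 1 mM MgCl2, was treated with 10 μM compound for 30 min. After 3 min heating across 48°C-58°C, aliquots were pooled, adjusted to 0.5% NP-40 at 4°C and centrifuged at 21,000xg for 90 min. The supernatant was measured by TMTpro 16plex LC-MS/MS with channel sums equalised.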

The chains behind the UniProt entries cited, without tags or fusion partners. Where a name states a change or a piece, a line headed by the entry shows the natural chain unless it says otherwise.
UniProt Q13151: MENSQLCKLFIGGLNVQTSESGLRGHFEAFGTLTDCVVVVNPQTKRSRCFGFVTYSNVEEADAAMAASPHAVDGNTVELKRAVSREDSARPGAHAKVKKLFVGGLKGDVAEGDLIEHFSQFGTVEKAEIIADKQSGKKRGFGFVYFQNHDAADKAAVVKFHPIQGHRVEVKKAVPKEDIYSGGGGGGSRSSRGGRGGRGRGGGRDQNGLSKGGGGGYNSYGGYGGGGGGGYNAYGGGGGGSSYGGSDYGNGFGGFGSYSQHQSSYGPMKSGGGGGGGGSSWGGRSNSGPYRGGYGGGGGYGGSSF
UniProt Q5T447: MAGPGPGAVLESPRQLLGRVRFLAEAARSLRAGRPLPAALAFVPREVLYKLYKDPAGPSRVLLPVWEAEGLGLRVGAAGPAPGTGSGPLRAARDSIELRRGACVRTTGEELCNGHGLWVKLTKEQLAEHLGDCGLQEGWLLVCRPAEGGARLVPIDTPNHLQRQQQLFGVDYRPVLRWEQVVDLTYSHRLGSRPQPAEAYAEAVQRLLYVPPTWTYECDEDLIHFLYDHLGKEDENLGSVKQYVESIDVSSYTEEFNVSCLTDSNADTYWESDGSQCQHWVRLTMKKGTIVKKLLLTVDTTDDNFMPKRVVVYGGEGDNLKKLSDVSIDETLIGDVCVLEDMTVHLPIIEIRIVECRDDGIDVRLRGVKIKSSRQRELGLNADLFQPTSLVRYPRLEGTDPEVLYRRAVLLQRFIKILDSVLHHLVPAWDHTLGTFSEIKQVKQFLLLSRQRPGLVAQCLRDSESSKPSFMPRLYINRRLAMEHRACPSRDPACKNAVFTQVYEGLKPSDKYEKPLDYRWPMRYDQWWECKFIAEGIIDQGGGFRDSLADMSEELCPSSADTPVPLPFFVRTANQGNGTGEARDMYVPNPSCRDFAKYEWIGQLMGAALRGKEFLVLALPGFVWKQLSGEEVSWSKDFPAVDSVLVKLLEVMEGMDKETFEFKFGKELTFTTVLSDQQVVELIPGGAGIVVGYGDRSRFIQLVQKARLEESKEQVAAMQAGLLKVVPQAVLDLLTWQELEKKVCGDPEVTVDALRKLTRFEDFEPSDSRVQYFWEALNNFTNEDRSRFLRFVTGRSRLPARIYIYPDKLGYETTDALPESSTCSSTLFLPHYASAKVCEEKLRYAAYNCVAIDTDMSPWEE
UniProt Q14527: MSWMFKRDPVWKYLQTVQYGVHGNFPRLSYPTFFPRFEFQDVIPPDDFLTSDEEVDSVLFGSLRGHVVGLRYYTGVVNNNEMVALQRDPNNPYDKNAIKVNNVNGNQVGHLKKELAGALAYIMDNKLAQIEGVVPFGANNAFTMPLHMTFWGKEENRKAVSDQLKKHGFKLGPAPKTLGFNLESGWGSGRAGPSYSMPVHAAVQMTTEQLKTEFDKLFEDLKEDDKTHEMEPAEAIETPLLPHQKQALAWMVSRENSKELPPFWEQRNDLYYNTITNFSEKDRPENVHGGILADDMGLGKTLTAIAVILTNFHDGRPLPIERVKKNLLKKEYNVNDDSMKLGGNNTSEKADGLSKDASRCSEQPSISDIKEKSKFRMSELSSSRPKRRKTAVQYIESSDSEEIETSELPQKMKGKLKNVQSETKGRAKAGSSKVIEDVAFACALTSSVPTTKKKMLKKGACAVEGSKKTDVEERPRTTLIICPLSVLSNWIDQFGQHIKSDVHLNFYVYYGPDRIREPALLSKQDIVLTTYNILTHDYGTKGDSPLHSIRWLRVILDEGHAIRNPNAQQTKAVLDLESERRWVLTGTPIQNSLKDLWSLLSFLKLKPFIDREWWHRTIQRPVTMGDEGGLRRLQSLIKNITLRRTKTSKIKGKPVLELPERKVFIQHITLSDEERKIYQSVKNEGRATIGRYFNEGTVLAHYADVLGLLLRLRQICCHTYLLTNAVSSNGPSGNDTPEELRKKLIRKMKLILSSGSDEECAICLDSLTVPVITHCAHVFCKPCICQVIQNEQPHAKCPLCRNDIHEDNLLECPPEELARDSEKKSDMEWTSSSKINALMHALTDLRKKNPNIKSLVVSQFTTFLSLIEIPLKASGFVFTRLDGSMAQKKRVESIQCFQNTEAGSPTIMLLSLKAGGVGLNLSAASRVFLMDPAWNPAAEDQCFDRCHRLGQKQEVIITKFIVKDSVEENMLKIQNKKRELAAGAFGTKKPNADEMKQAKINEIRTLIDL
UniProt Q6NT76: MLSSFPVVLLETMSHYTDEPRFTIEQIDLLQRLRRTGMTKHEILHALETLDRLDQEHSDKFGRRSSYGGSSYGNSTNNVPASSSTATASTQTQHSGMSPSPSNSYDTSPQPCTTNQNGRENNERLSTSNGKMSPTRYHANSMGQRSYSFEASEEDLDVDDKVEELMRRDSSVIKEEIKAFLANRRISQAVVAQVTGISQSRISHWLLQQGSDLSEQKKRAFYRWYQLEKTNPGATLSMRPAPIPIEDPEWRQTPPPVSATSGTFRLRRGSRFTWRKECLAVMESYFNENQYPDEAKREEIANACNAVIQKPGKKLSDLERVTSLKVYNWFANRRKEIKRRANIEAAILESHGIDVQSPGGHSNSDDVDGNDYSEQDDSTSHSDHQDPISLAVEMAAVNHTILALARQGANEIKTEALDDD
UniProt Q00613: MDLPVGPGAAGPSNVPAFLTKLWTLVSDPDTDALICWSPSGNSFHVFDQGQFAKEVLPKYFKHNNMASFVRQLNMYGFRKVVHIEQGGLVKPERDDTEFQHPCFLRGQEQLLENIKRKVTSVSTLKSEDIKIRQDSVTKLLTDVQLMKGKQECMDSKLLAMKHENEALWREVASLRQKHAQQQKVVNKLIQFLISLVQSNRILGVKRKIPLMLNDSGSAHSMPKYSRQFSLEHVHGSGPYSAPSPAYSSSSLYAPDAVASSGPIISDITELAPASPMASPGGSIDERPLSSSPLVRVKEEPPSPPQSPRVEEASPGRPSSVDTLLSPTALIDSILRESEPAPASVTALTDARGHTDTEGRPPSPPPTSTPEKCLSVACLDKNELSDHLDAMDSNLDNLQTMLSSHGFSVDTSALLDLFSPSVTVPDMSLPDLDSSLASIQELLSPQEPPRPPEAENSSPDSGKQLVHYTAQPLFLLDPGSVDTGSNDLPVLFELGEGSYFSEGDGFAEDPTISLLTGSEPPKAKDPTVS
UniProt P49773: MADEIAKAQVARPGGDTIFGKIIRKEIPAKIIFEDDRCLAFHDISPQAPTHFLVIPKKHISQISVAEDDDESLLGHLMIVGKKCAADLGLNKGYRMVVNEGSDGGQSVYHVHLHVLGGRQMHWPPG
UniProt H0YH80: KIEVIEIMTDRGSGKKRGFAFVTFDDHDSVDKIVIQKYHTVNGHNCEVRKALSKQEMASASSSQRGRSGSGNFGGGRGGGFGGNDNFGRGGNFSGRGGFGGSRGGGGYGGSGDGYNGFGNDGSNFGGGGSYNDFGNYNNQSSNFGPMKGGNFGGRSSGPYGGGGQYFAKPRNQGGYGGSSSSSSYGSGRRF
UniProt Q8TDG4: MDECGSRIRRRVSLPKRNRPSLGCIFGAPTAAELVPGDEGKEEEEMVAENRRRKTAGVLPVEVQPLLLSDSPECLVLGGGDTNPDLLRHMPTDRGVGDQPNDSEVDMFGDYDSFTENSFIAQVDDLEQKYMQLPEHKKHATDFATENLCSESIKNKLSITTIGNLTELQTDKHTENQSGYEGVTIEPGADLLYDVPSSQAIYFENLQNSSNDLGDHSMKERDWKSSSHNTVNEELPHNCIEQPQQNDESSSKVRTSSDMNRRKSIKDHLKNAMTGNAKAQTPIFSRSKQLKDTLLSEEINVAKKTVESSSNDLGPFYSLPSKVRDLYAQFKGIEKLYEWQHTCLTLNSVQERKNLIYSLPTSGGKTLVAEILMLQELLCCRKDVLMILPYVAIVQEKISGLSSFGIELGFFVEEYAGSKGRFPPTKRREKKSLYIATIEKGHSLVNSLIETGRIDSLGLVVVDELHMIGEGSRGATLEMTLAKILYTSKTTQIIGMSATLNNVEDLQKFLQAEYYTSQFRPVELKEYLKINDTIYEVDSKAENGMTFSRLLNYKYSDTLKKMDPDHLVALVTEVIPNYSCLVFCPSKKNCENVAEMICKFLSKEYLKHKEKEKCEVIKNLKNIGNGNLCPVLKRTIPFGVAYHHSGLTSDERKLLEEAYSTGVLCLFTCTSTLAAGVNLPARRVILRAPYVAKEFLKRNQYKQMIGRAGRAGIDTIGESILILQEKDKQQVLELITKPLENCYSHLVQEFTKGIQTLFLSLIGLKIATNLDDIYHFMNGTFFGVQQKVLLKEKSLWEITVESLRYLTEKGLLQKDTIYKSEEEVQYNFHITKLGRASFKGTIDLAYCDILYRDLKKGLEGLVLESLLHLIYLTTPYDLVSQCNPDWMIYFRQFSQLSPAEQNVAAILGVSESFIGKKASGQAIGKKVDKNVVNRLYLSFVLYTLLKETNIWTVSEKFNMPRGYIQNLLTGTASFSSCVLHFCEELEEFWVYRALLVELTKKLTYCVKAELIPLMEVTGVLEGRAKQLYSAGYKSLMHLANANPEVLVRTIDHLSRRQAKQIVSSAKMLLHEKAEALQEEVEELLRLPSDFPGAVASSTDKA
UniProt Q9NWY4: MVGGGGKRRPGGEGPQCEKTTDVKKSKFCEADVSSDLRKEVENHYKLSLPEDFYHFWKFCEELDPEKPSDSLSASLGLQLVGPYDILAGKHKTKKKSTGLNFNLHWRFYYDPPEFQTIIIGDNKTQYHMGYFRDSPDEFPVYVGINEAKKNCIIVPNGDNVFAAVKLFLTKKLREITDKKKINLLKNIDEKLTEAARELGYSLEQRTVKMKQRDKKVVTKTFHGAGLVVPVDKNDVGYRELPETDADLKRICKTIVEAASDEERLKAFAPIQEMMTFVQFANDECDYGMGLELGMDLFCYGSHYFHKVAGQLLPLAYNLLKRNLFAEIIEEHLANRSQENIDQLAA
UniProt Q14103: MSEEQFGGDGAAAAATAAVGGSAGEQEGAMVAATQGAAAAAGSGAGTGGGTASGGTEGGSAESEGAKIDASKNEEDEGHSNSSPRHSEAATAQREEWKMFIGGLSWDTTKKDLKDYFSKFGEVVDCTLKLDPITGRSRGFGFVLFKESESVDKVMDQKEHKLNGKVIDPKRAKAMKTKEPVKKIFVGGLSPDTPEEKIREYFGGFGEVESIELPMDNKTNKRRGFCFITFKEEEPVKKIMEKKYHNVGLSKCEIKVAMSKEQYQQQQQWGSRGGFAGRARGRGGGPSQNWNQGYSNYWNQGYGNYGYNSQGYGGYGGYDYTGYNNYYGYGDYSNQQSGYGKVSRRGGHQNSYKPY
UniProt Q9NP66: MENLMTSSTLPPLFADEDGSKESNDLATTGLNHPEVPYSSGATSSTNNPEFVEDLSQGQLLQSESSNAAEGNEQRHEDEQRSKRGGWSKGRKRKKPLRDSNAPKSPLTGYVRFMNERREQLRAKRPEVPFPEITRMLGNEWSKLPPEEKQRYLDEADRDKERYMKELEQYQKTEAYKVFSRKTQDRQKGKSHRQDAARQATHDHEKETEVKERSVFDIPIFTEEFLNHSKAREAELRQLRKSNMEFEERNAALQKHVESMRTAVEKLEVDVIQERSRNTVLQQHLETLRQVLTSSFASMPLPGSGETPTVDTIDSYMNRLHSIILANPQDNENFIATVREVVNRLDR
UniProt Q9BTY7: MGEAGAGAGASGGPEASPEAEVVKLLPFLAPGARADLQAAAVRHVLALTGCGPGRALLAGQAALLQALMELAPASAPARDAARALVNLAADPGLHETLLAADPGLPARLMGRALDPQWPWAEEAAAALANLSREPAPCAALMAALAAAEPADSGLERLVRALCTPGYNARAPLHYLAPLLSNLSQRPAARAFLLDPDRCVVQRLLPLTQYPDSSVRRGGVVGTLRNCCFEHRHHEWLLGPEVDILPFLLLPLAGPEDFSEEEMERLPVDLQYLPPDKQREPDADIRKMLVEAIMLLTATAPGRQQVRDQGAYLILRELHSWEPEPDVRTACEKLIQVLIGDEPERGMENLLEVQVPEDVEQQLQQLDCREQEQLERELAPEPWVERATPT
UniProt Q8TCT9: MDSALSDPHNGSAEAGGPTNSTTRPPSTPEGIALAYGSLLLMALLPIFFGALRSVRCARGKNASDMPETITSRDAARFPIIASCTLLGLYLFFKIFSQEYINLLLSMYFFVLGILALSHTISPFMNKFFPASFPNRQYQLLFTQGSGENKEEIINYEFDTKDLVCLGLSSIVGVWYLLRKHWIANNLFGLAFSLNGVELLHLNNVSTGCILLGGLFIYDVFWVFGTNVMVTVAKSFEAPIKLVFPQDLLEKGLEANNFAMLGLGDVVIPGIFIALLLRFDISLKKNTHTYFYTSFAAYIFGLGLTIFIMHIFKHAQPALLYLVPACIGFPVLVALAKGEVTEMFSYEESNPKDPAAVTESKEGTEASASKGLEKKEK

pictilisib = compound: CS(=O)(=O)N1CCN(Cc2cc3nc(-c4cccc5[nH]ncc45)nc(N4CCOCC4)c3s2)CC1 [pictilisib]
Summary of the method: as §1

crizotinib = compound: C[C@@H](Oc1cc(-c2cnn(C3CCNCC3)c2)cnc1N)c1c(Cl)ccc(F)c1Cl [crizotinib]
Summary of the method: as §1

[1] = compound: C[C@H](C1=CC=C(C=C1)C(=O)NC2=C3C=CNC3=NC=C2)N
Summary of the method: as §1

duvelisib = compound: C[C@H](Nc1ncnc2nc[nH]c12)c1cc2cccc(Cl)c2c(=O)n1-c1ccccc1 [duvelisib]
Summary of the method: as §1

gandotinib = compound: Cc1cc(Nc2cc(CN3CCOCC3)c3nc(C)c(Cc4ccc(Cl)cc4F)n3n2)n[nH]1 [gandotinib]
Summary of the method: as §1

tozasertib = compound: Cc1cc(Nc2cc(N3CCN(C)CC3)nc(Sc3ccc(NC(=O)C4CC4)cc3)n2)n[nH]1 [tozasertib]
Summary of the method: as §1

doramapimod = compound: Cc1ccc(-n2nc(C(C)(C)C)cc2NC(=O)Nc2ccc(OCCN3CCOCC3)c3ccccc23)cc1 [doramapimod]
Summary of the method: as §1

bafetinib = compound: Cc1ccc(NC(=O)c2ccc(CN3CC[C@H](N(C)C)C3)c(C(F)(F)F)c2)cc1Nc1nccc(-c2cncnc2)n1 [bafetinib]
Summary of the method: as §1

[2] = compound: Cc1cccc(CC(=O)N2CCc3c2ccc(-c2cn(C)c4ncnc(N)c24)c3F)n1
Summary of the method: as §1

nilotinib = compound: Cc1cn(-c2cc(NC(=O)c3ccc(C)c(Nc4nccc(-c5cccnc5)n4)c3)cc(C(F)(F)F)c2)cn1 [nilotinib]
Summary of the method: as §1

[3] = compound: Cc1nc(Nc2n[nH]c3c2CN(C(=O)N[C@H](CN(C)C)c2ccccc2)C3(C)C)c2sccc2n1
Summary of the method: as §1

dasatinib = compound: Cc1nc(Nc2ncc(C(=O)Nc3c(C)cccc3Cl)s2)cc(N2CCN(CCO)CC2)n1 [dasatinib]
Summary of the method: as §1

[4] = compound: Cc1ncc(-c2ccnc(Nc3ccc(S(C)(=O)=O)cc3)n2)n1C(C)C
Summary of the method: as §1

[5] = compound: Cn1cc(-c2ccc3c(c2)CCN3C(=O)Cc2cccc(C(F)(F)F)c2)c2c(N)ncnc21
Summary of the method: as §1

quisinostat = compound: Cn1cc(CNCC2CCN(c3ncc(C(=O)NO)cn3)CC2)c2ccccc21 [quisinostat]
Summary of the method: as §1

tipifarnib = compound: Cn1cncc1[C@@](N)(c1ccc(Cl)cc1)c1ccc2c(c1)c(-c1cccc(Cl)c1)cc(=O)n2C [tipifarnib]
Summary of the method: as §1

[6] = compound: NC(=O)Nc1cc(-c2cccc(F)c2)sc1C(=O)N[C@H]1CCCNC1
Summary of the method: as §1

[7] = compound: NC(=O)c1cnc(N[C@@H]2CCCC[C@@H]2N)nc1Nc1cccc(-n2nccn2)c1
Summary of the method: as §1

[8] = compound: NC1(c2ccc(-c3nc4ccn5c(=O)[nH]nc5c4cc3-c3ccccc3)cc2)CCC1
Summary of the method: as §1

| Target | log2 fold change (lapatinib) | log2 fold change (pictilisib) | log2 fold change (crizotinib) | log2 fold change [1] | log2 fold change (duvelisib) | log2 fold change (gandotinib) | log2 fold change (tozasertib) | log2 fold change (doramapimod) | log2 fold change (bafetinib) | log2 fold change [2] | log2 fold change (nilotinib) | log2 fold change [3] | log2 fold change (dasatinib) | log2 fold change [4] | log2 fold change [5] | log2 fold change (quisinostat) | log2 fold change (tipifarnib) | log2 fold change [6] | log2 fold change [7] | log2 fold change [8] |
| --- | --- | --- | --- | --- | --- | --- | --- | --- | --- | --- | --- | --- | --- | --- | --- | --- | --- | --- | --- | --- |
| HNRNPA0 (UniProt Q13151) | inactive: 0.017 | inactive: 0.022 | inactive: -0.032 | inactive: 0.003 | inactive: -0.074 | inactive: -0.027 | inactive: -0.028 | inactive: -0.015 | inactive: -0.023 | inactive: -0.059 | inactive: -0.08 | inactive: -0.024 | inactive: -0.062 | inactive: -0.017 | inactive: 0.011 | inactive: -0.038 | inactive: 0.023 | inactive: 0.047 | inactive: 0.036 | inactive: 0.012 |
| HECTD3 (UniProt Q5T447) | inactive: -0.047 | inactive: -0.098 | inactive: -0.034 | inactive: -0.001 | inactive: -0.006 | inactive: -0.013 | inactive: 0.018 | inactive: 0.056 | inactive: -0.13 | inactive: -0.004 | inactive: -0.004 | inactive: 0.041 | inactive: -0.016 | inactive: -0.012 | inactive: 0.006 | inactive: 0.026 | inactive: 0.059 | inactive: 0.05 | inactive: 0.003 | inactive: 0.056 |
| HLTF (UniProt Q14527) | inactive: 0.045 | inactive: 0.061 | inactive: -0.019 | inactive: -0.063 | inactive: -0.05 | inactive: -0.021 | inactive: 0.004 | inactive: -0.007 | inactive: -0.087 | inactive: 0.035 | inactive: -0.039 | inactive: 0.004 | inactive: -0.041 | inactive: -0.051 | inactive: 0.05 | inactive: 0.021 | inactive: -0.148 | inactive: 0.102 | inactive: 0.055 | inactive: -0.085 |
| HSD17B10 (UniProt Q99714) | inactive: -0.031 | inactive: -0.013 | inactive: 0.002 | inactive: -0.049 | inactive: 0.013 | inactive: 0.022 | inactive: -0.031 | inactive: -0.008 | inactive: 0 | inactive: 0.026 | inactive: 0 | inactive: -0.044 | inactive: -0.034 | inactive: -0.001 | inactive: -0.017 | inactive: -0.01 | inactive: 0.008 | inactive: 0.013 | inactive: -0.002 | inactive: 0.005 |
| HMBOX1 isoform 5 (UniProt Q6NT76) | active: 0.254 | inactive: -0.097 | inactive: 0.023 | inactive: 0 | inactive: 0.021 | inactive: 0.052 | inactive: 0.035 | inactive: -0.013 | inactive: 0.112 | inactive: 0.129 | inactive: 0.186 | inactive: -0.038 | inactive: -0.034 | inactive: 0.078 | inactive: 0.024 | inactive: -0.008 | inactive: 0.077 | inactive: 0.001 | inactive: 0.041 | inactive: -0.055 |
| HSF1 (UniProt Q00613) | inactive: -0.031 | inactive: -0.005 | inactive: 0.002 | inactive: 0.088 | inactive: -0.03 | inactive: -0.052 | inactive: -0.018 | inactive: -0.009 | inactive: 0.028 | inactive: -0.039 | inactive: -0.009 | inactive: 0.046 | inactive: -0.034 | inactive: -0.041 | inactive: -0.015 | inactive: -0.033 | inactive: 0.064 | inactive: 0.018 | inactive: 0.005 | inactive: -0.059 |
| HERC1 (UniProt Q15751) | inactive: -0.037 | inactive: -0.041 | inactive: -0.023 | inactive: -0.019 | inactive: 0.028 | inactive: -0.03 | inactive: 0.005 | inactive: 0.009 | inactive: -0.041 | inactive: 0.02 | inactive: 0.008 | inactive: 0.004 | inactive: -0.011 | inactive: 0.019 | inactive: 0.011 | inactive: -0.041 | inactive: -0.007 | inactive: 0.037 | inactive: -0.004 | inactive: -0.008 |
| HINT1 (UniProt P49773) | inactive: 0.109 | inactive: 0.028 | inactive: 0.035 | inactive: 0.096 | inactive: 0.05 | inactive: -0.064 | inactive: 0.059 | inactive: 0.057 | inactive: 0.022 | inactive: -0.035 | inactive: 0.019 | inactive: 0.038 | inactive: -0.002 | inactive: 0.031 | inactive: -0.016 | inactive: 0.092 | inactive: 0.011 | inactive: -0.091 | inactive: -0.031 | inactive: 0.056 |
| HNRNPA1 (UniProt H0YH80) | inactive: 0.059 | inactive: 0.147 | inactive: 0.053 | inactive: -0.046 | inactive: 0.022 | inactive: 0.043 | inactive: 0.006 | inactive: 0.022 | inactive: 0.026 | inactive: -0.045 | inactive: -0.023 | inactive: -0.077 | inactive: -0.14 | inactive: -0.185 | inactive: -0.093 | inactive: -0.048 | inactive: 0.019 | inactive: 0.068 | inactive: -0.066 | inactive: -0.038 |
| HELQ (UniProt Q8TDG4) | inactive: 0.002 | inactive: -0.009 | inactive: -0.011 | inactive: -0.014 | inactive: 0.025 | inactive: 0.012 | inactive: -0.01 | inactive: 0.042 | inactive: -0.109 | inactive: -0.033 | active: -0.486 | active: -0.433 | inactive: 0.021 | inactive: 0.051 | inactive: -0.028 | inactive: -0.024 | inactive: 0.033 | inactive: -0.013 | inactive: 0.122 | inactive: 0.009 |
| HPCAL1 (UniProt P37235) | inactive: 0.02 | inactive: -0.024 | inactive: 0.093 | inactive: -0.064 | inactive: 0.001 | inactive: 0.022 | inactive: 0.024 | inactive: 0.038 | inactive: 0.015 | inactive: 0.049 | inactive: -0.008 | inactive: 0.004 | inactive: 0.015 | inactive: -0.032 | inactive: 0.023 | inactive: 0.053 | inactive: 0.043 | inactive: -0.052 | inactive: -0.013 | inactive: 0.046 |
| HPF1 (UniProt Q9NWY4) | inactive: -0.04 | inactive: -0.01 | inactive: -0.015 | inactive: 0.016 | inactive: 0.024 | inactive: -0.06 | inactive: 0.014 | inactive: 0.02 | inactive: -0.062 | inactive: 0.027 | inactive: 0.024 | inactive: -0.012 | inactive: -0.047 | inactive: -0.041 | inactive: 0.083 | inactive: -0.04 | inactive: -0.009 | inactive: 0.051 | inactive: 0.048 | inactive: -0.035 |
| HNRNPD isoform 2 (UniProt Q14103) | inactive: 0.047 | inactive: 0.043 | inactive: 0.034 | active: 0.559 | inactive: 0.015 | inactive: -0.085 | inactive: 0.004 | inactive: -0.023 | inactive: 0.095 | inactive: -0.108 | inactive: -0.047 | inactive: 0 | inactive: -0.02 | inactive: 0.009 | inactive: -0.05 | inactive: 0.139 | inactive: 0.029 | inactive: -0.025 | inactive: 0.015 | inactive: -0.008 |
| HMG20A (UniProt Q9NP66) | inactive: -0.034 | inactive: -0.036 | inactive: 0.034 | inactive: -0.021 | inactive: 0.025 | inactive: 0.029 | inactive: 0.053 | inactive: -0.034 | inactive: 0.032 | inactive: 0.038 | inactive: -0.032 | inactive: 0.011 | inactive: 0.046 | inactive: -0.019 | inactive: 0.003 | inactive: 0 | inactive: 0.01 | inactive: 0.013 | inactive: -0.009 | inactive: 0.091 |
| HGH1 (UniProt Q9BTY7) | inactive: -0.028 | inactive: -0.031 | inactive: -0.056 | inactive: -0.009 | inactive: 0.012 | inactive: -0.073 | inactive: 0.035 | inactive: 0.014 | inactive: -0.068 | inactive: 0.064 | inactive: 0.067 | inactive: -0.004 | inactive: -0.052 | inactive: -0.024 | inactive: 0.016 | inactive: -0.015 | inactive: 0 | inactive: 0.047 | inactive: 0.074 | inactive: -0.017 |
| HM13 isoform 2 (UniProt Q8TCT9) | inactive: 0.016 | inactive: -0.004 | inactive: -0.004 | inactive: -0.063 | inactive: 0.018 | inactive: 0.018 | inactive: 0.002 | inactive: 0.016 | inactive: -0.017 | inactive: 0.015 | inactive: 0.003 | inactive: -0.013 | inactive: -0.024 | inactive: 0 | inactive: -0.053 | inactive: -0.037 | inactive: -0.028 | inactive: -0.016 | inactive: -0.026 | inactive: -0.012 |

2 entries from above, with tabs:
Target	log2 fold change (lapatinib)	log2 fold change (pictilisib)	log2 fold change (crizotinib)	log2 fold change [1]	log2 fold change (duvelisib)	log2 fold change (gandotinib)	log2 fold change (tozasertib)	log2 fold change (doramapimod)	log2 fold change (bafetinib)	log2 fold change [2]	log2 fold change (nilotinib)	log2 fold change [3]	log2 fold change (dasatinib)	log2 fold change [4]	log2 fold change [5]	log2 fold change (quisinostat)	log2 fold change (tipifarnib)	log2 fold change [6]	log2 fold change [7]	log2 fold change [8]
HECTD3 (UniProt Q5T447)	inactive: -0.047	inactive: -0.098	inactive: -0.034	inactive: -0.001	inactive: -0.006	inactive: -0.013	inactive: 0.018	inactive: 0.056	inactive: -0.13	inactive: -0.004	inactive: -0.004	inactive: 0.041	inactive: -0.016	inactive: -0.012	inactive: 0.006	inactive: 0.026	inactive: 0.059	inactive: 0.05	inactive: 0.003	inactive: 0.056
HERC1 (UniProt Q15751)	inactive: -0.037	inactive: -0.041	inactive: -0.023	inactive: -0.019	inactive: 0.028	inactive: -0.03	inactive: 0.005	inactive: 0.009	inactive: -0.041	inactive: 0.02	inactive: 0.008	inactive: 0.004	inactive: -0.011	inactive: 0.019	inactive: 0.011	inactive: -0.041	inactive: -0.007	inactive: 0.037	inactive: -0.004	inactive: -0.008
